The assay deals with T1, Flag-Slug (human) (UniProt O43623).
T1 sequence: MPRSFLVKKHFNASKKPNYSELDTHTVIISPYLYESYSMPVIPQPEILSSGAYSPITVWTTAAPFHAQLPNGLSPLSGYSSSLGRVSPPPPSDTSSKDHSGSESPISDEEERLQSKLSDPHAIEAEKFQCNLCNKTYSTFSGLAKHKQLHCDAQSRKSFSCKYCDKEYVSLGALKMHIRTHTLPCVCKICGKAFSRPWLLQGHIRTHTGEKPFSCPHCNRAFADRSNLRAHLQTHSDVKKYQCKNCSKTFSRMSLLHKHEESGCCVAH
Put plainly: affinity purification with mass spectrometry; extracts of HEK293T cells expressing Flag-Slug on anti-Flag M2 agarose, 1.5 h at 4 °C, lysis buffer 50 mM Tris-HCl pH 8.0, 0.2% NP-40, 150 mM NaCl, 2 mM EDTA; eluted with Flag peptide, SDS-PAGE, silver stain, LC-MS/MS.

Chains of the proteins cited; added tags and fusions are not shown.
UniProt O14744: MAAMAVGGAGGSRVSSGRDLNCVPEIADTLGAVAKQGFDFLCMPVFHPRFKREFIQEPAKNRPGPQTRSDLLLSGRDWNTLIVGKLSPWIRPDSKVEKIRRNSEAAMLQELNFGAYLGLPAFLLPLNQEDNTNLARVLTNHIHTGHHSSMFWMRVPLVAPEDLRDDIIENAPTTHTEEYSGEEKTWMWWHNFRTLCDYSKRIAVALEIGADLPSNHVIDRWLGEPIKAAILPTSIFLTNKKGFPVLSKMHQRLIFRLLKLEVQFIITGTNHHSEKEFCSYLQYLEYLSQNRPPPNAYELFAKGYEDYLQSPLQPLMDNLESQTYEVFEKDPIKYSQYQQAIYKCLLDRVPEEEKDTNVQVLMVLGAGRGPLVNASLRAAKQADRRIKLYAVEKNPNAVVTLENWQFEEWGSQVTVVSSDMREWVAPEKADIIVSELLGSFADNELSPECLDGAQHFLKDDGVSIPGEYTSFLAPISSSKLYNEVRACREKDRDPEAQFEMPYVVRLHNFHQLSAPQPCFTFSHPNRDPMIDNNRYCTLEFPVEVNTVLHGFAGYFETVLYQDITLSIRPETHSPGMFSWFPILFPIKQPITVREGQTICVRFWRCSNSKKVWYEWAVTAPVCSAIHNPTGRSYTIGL

No constants are given. Whether binding was seen depends on the method and setting. Binding seen in cells or lysates may run through a third protein. These calls come from enrichment with a bait or labelling near it, and not all partners need be listed. Tags and fused reporters may be left off the sequences shown.

Regarding “Protein arginine methyltransferase 5 (endogenous) (from UniProt O14744 1-637) (enzyme)”, the binding entry was “binds”.

For the origin of these results see article PMC9164399.
